Results are given as percent effect.
The record does not define 0% and 100%; most values in the screen are far below 50% and negative numbers occur (in some assays of this library far below -100).
This is an unselected part of the compounds tested.

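Whole-cell assay for inhibitors of Mycobacterium tuberculosis growth, labelled Cornell in the record; the read-out is not stated. The concentration is filed as 10 mM, unlikely as a test dose, so the dose is not known. The record gives no direction; compounds strong in two other growth screens of this library score well above the rest, so higher reads as stronger inhibition. About 53,000 compounds were tested under these conditions; 1.7% (about 900) showed 50% or more at least once.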

compound	Percent Effect
Fc1cccc(NCc2ncc[nH]2)c1	35.73
Cl.Cn1nc(C2CCN(C(=O)Cc3cccc(F)c3)CC2)c2cccnc21	6.447
O=C(O)C(F)(F)F.O=C(c1ccoc1)N1CCOC2(COCCN(c3ncccn3)C2)C1 (stereo not drawn)	-5.965
CCN(CC(=O)Nc1c(C)nn(C)c1C)CC(O)c1ccc(C)cc1 (stereo not drawn)	14.26
O=C(c1cnc(-c2cnccn2)s1)N1CCCC1Cn1cccn1 (stereo not drawn)	-37.14
Cc1noc(C)c1CN1CCC2(COCc3cnc(N(C)C)nc32)C1.O=C(O)C(F)(F)F (stereo not drawn)	9.082
CN1CCN(Cn2nc(-c3cccs3)ccc2=O)CC1	17.93
COCc1nnc(NC(=O)c2cn(C(C)C)c3ccc(OC)cc23)s1	19.23
CC(=O)N1CCCC1c1nccnc1NCc1cccnc1 (stereo not drawn)	6.348
Cc1nc2c(c(N3CCCOCC3)n1)CCN(c1nccs1)CC2	28.56
O=C1C(NCc2nnc3n2CCCC3)CCN1c1ccccc1 (stereo not drawn)	14.55
CCc1ncc(CN2CCN(c3cc(NC4CC4)nc(N)n3)CC2)cn1	-18.43
Cc1nc(-c2nnc[nH]2)sc1C(=O)N(Cc1cccnc1)C1CC1	8.66
CN1CCCC(N2CCN(c3nc4ccccn4c3C#N)CC2)C1 (stereo not drawn)	-34.9
Cl.Cl.O=C(CN1CCN(CC(O)C2CC2)CC1)NCc1ccc(F)cc1 (stereo not drawn)	12.18
CCc1noc(CS(=O)(=O)C(C)c2nc(C3CC3)no2)n1 (stereo not drawn)	-12.34
CCN1c2ccc(-c3cncn3CC(=O)NC(C)(C)C)cc2CC1C.Cl (stereo not drawn)	-3.554
CC(C)(C)NC(=O)C1(Cc2ccccc2-c2ccncc2)CCOCC1	-14.31
COCc1cnc2n1CCN(C(=O)c1cnc3ccccc3c1)C2C (stereo not drawn)	-4.425
O=C(Nc1cccnn1)NC(CCCO)c1ccccc1 (stereo not drawn)	-8.222
CC(=O)N(C)C(c1cccnc1)c1ccc(F)c(F)c1 (stereo not drawn)	-70.74
CCCNC(=O)N1CCc2ccc(S(=O)(=O)N3CCCC3)cc2C1	23.6
Cn1cnc(S(=O)(=O)NCCN2CCCCCC2=O)c1Cl	-18.9
COCCCN(CCOC)C(=O)Nc1ccccc1Br	9.139
CCOc1cc(CN[C@@H]2COC[C@H]2Cc2cc(C)no2)ccc1O.O=C(O)CC(O)(CC(=O)O)C(=O)O	41.28
CC(C)N1CCC2(CC1)C[C@@H](O)[C@H](c1ccccc1)NC2=O	-17.68
[H][C@@]12C[C@H](C(=O)NCC(C)C)[C@@]([H])(CN(S(=O)(=O)c3cccc(C)c3)C1)O2	-7.814
CCCn1nccc1C(=O)Nc1ncc(C)s1	29.79
O=C(NCCSc1ccccc1)[C@H]1CNC[C@H](C(=O)N2CCOCC2)C1	8.664
O=C(O)C(F)(F)F.O=C1CC(c2ccccc2)C2(CCN(CC3CC3)CC2)N1 (stereo not drawn)	17.84
[H][C@@]12CN(C(=O)c3ccsc3)C[C@]1([H])C(=O)N(Cc1cccc(C)c1)C2	10.11
O=C(NCCc1ccccc1)C1CCCN(c2ccc3nncn3n2)C1 (stereo not drawn)	22.32
N#Cc1cc(F)c(NCCc2ccc(F)cc2)c(F)c1	36.32
O=C(c1ccco1)N1CCCC(c2cc(C(F)(F)F)[nH]n2)C1 (stereo not drawn)	4.356
COCCCN(C)C1CCCN(Cc2noc(C)n2)C1 (stereo not drawn)	12.84
O=C(c1ccc(N2CCCC2)nn1)N1CCc2ccccc21	-3.037
COc1ccc(CNC2(Cc3cc(CC(C)C)on3)COC2)cc1	-25.98
CCN(CC)S(=O)(=O)N1CCc2nc(C3CCNCC3)ncc2C1.Cl	24.2
CCn1cnnc1CNC(=O)N1CCN(c2cccc(OC)c2)CC1	-40.59
COc1ccc(CCCN(C)C(=O)c2cc(C(C)=O)c[nH]2)cc1OC	2.059
O=C1CC2(CCCCC2)C(=O)N1CC(O)COCc1ccccc1F (stereo not drawn)	-17.63
Cc1ccc2cc(C(=O)N3CCCCC3c3nc[nH]n3)ccc2n1 (stereo not drawn)	-20.03
O=C1CCC2(CCN(Cc3cc(F)ccc3Cl)CC2)CN1C1CCCC1	2.14
O=C(Nc1ccc2occc2c1)N1CCCC(O)(CO)CC1 (stereo not drawn)	-19.69
CCOc1ccc(CN(C)C2CCN(c3cc(C)nn3C)C2=O)cc1 (stereo not drawn)	4.36
CC1CCN(C(=O)c2cn(-c3ccc(C(F)(F)F)cn3)nn2)CC1	43.54
Cc1cccc(-c2noc(CN3CC(n4cccn4)C3)n2)c1	5.509
O=C(O)C(F)(F)F.O=C(O)C(F)(F)F.c1cncc(-c2nnn3c2COCC(CNC2CCOCC2)C3)c1 (stereo not drawn)	-5.143
Cc1noc(C)c1-c1cncc(C2CCCN2Cc2c[nH]cn2)n1 (stereo not drawn)	-10.06
COc1ncccc1CN1CCn2c(C(=O)N3CCCC3)cnc2C1.O=C(O)C(F)(F)F.O=C(O)C(F)(F)F	12
CC(C)Cn1c(=O)nc2n1C(=O)N(c1ccc(F)cc1)C2	19.13
CN(Cc1cccnc1)C1CC2(CCN(c3ncc(F)cn3)CC2)C1.O=C(O)C(F)(F)F.O=C(O)C(F)(F)F	30.21
Cc1ccc(OCCCNC(=O)CN(C)c2ccc(C#N)cn2)cc1	-21.5
Cc1cnn(-c2cccc(N3CCCCC3)n2)c1	-9.343
CCOCC1c2c(ncn2C)CCN1C(=O)c1ccoc1 (stereo not drawn)	-14.41
c1ccc(-c2n[nH]c(CCNc3nnc(C4CCC4)o3)n2)cc1	-3.614
CC1(C(=O)N2CCOCC2)CNCCO1.Cl (stereo not drawn)	-0.4782
[H][C@@]12CN(c3ccccn3)C[C@]1([H])N(CCCc1ccc(F)cc1)C(=O)O2	23.93
COc1cccc(N2CCC(CNC(=O)N(C)Cc3ccco3)C2)c1 (stereo not drawn)	38.47
O=S(=O)(NCc1cc2n(n1)CCNC2)c1ccc(OC(F)(F)F)cc1	11
O=C(O)C(F)(F)F.[H][C@@]12CCN(c3ncccn3)C[C@]1([H])[C@H](C(=O)NC(C)C)CCO2	-3.453
Cc1cc(C2CCCN2Cc2ccc(S(=O)(=O)N3CCCC3)o2)on1 (stereo not drawn)	-8.024
Cc1n[nH]cc1CNC(=O)CCCc1cccs1	-6.383
Cc1cnn(CC2CCN(CC(O)c3ccc(F)cc3)CC2)c1 (stereo not drawn)	24.84
CCc1csc(C2CCCN(C(=O)c3ncccn3)C2)n1 (stereo not drawn)	-80.78
CSCC[C@H](N)c1nnc(SCC(=O)Nc2ccc(Br)cc2)o1.Cl	31.48
CC(C)NC(=O)N1CCN(S(=O)(=O)C2CC2)CC2(CC(=O)N(C)C2)C1 (stereo not drawn)	-5.85
COc1ccc(C(C)=O)cc1CN1CCn2cccc2C1C (stereo not drawn)	-3.84
CN(C)Cc1ccc(C2CCCCN2C(=O)c2cc(C3CC3)n[nH]2)cc1 (stereo not drawn)	29.87
CC1c2ncc(CNC(=O)C3CC3)n2CCN1Cc1cnn(C)c1.O=C(O)C(F)(F)F.O=C(O)C(F)(F)F (stereo not drawn)	12.4
Nc1cc(-c2cccc3ccnn23)ccn1	-5.282

Data taken from ChEMBL document CHEMBL3988442, “University of Dundee, Small-Polar-MMV Screening Library” (2021).